According to article PMC12500908:
No constants are given. Whether binding was seen depends on the method and setting. In cells and extracts the contact can be indirect. Some results given as binding are weak or reduced against the parent protein; the word gives no strength.

The chains behind the UniProt entries cited, without tags or fusion partners.
UniProt Q86U44: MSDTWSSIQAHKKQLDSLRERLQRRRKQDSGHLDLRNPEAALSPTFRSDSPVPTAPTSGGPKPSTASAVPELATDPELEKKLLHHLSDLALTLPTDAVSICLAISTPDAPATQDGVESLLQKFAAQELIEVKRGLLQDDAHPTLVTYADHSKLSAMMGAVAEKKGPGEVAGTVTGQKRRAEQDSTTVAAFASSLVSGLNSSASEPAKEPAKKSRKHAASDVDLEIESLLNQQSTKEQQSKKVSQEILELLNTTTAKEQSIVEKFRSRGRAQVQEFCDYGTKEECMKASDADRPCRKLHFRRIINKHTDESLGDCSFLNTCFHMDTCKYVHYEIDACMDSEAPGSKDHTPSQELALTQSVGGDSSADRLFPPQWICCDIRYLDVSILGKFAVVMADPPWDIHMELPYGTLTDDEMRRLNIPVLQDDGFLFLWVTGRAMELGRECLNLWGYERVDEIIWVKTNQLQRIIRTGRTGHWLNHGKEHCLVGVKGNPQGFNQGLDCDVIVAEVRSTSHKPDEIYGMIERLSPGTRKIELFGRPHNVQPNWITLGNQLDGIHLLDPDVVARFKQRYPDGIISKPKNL
UniProt Q8C3P7: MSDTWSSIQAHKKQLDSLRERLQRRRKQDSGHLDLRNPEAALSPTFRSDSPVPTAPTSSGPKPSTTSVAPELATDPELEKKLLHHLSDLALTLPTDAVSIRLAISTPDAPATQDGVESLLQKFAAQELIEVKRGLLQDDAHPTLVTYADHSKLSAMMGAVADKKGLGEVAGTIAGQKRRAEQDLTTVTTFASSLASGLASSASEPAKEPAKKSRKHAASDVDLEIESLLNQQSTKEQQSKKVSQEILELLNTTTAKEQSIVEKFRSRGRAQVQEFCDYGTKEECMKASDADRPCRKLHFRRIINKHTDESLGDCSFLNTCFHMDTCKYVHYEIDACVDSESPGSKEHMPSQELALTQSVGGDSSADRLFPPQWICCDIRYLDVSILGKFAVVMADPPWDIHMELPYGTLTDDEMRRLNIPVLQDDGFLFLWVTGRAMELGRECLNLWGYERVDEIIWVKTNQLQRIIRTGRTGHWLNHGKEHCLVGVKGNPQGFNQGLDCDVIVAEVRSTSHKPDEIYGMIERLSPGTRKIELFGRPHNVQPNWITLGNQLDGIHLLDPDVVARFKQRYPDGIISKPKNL
UniProt Q15172: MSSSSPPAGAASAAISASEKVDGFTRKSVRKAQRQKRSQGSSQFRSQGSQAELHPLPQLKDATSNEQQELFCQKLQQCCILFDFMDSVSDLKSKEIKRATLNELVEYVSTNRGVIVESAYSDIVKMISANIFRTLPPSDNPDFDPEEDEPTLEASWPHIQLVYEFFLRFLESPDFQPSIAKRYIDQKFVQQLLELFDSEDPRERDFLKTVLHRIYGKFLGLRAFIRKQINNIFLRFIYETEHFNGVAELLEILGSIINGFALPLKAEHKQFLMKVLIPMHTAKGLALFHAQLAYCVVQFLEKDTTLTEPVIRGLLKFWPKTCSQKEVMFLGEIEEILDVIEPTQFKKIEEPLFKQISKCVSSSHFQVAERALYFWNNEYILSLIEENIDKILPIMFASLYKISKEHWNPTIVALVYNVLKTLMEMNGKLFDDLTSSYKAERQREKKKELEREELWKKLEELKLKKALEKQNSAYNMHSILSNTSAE
UniProt Q6PD03: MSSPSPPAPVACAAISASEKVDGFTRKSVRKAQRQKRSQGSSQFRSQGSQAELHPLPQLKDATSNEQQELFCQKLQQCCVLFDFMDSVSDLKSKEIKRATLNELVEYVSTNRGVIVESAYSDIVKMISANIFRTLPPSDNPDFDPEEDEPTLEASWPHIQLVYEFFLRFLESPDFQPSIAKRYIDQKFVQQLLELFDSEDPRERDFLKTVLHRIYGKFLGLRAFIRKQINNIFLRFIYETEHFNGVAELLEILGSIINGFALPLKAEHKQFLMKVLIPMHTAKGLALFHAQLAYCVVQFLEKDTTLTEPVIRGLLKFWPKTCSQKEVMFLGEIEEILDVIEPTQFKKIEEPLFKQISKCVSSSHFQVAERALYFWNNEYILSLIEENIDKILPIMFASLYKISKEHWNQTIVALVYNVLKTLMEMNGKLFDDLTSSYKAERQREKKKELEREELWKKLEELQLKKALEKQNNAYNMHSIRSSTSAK

Assays:
[1] = target: METTL3, endogenous in HepG2 cells (human (endogenous in HepG2)) (UniProt Q86U44); assay: co-IP; IP with anti-METTL3 or anti-B56α antibodies; HepG2 cells overexpressing B56α (B56α-OE) or METTL3-WT
[2] = target: Flag-METTL3 (UniProt Q86U44); assay: co-IP; HepG2 cells co-transfected with Flag-METTL3 and HA-B56α plasmids for 24 h; Co-IP with anti-Flag or anti-HA antibodies, WB with anti-HA and anti-Flag
[3] = target: wild-type METTL3 overexpressed in HepG2 cells (METTL3-WT) (UniProt Q86U44); assay: co-IP; IP with anti-METTL3 or anti-B56α antibodies; HepG2 cells overexpressing B56α (B56α-OE) or METTL3-WT
[4] = target: METTL3, endogenous in HepG2 cells (human (endogenous in HepG2)) (UniProt Q86U44); assay: co-IP; IP with anti-METTL3 and with anti-B56α antibodies; HepG2 cells transfected with or without pcDNA3.1-HBx plasmid (1 μg/mL, 24 h); endogenous proteins
[5] = target: METTL3, endogenous in mouse liver (mouse (endogenous in liver tissue)) (UniProt Q8C3P7); assay: co-IP; liver tissue of HBx-Tg mice and wild-type controls, with or without STM2457 (50 mg/kg i.p. daily, 14 days)

In the case of “B56α overexpressed in HepG2 cells (B56α-OE) (from UniProt Q15172 1-486)”, the binding [1] is reported as “binds”.

HA-B56α (from UniProt Q15172 1-486) was tested, and the binding [2] was “binds”.

“PP2A B56α subunit, endogenous in HepG2 cells (from UniProt Q15172 1-486)” was tested, and the binding [3] was “binds” and the binding [4] was “binds”.

In the case of “PP2A B56α subunit, endogenous in mouse liver (from UniProt Q6PD03 1-486)”, the binding [5] is reported as “binds”.
